Experimental data reported in publication PMC9726926.
No constants are given. Whether binding was seen depends on the method and setting. In cells and extracts the contact can be indirect. Some results given as binding are weak or reduced against the parent protein; the word gives no strength.

Sequences of proteins named here, by UniProt entry; tags and fusion partners are left off. A change or cut given only in a name is not applied to a line headed by its entry.
UniProt Q96GD4: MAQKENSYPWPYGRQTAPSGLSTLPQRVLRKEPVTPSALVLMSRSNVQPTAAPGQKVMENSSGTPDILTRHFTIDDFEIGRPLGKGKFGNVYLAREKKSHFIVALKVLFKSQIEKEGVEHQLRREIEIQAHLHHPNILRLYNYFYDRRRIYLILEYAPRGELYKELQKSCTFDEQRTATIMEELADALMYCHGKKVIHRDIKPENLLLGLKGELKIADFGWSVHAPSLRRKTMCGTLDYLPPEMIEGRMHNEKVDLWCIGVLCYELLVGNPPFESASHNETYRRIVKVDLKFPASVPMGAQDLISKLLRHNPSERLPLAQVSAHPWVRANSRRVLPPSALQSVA
UniProt P46736: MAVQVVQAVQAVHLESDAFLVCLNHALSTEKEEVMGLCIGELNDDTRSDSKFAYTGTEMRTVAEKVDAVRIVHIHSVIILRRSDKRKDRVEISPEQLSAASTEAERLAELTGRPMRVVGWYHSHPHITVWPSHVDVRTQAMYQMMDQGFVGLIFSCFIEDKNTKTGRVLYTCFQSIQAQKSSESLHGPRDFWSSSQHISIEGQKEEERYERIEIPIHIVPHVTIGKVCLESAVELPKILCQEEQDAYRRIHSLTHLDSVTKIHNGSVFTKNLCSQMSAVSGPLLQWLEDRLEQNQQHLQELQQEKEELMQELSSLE
UniProt Q9NQS7: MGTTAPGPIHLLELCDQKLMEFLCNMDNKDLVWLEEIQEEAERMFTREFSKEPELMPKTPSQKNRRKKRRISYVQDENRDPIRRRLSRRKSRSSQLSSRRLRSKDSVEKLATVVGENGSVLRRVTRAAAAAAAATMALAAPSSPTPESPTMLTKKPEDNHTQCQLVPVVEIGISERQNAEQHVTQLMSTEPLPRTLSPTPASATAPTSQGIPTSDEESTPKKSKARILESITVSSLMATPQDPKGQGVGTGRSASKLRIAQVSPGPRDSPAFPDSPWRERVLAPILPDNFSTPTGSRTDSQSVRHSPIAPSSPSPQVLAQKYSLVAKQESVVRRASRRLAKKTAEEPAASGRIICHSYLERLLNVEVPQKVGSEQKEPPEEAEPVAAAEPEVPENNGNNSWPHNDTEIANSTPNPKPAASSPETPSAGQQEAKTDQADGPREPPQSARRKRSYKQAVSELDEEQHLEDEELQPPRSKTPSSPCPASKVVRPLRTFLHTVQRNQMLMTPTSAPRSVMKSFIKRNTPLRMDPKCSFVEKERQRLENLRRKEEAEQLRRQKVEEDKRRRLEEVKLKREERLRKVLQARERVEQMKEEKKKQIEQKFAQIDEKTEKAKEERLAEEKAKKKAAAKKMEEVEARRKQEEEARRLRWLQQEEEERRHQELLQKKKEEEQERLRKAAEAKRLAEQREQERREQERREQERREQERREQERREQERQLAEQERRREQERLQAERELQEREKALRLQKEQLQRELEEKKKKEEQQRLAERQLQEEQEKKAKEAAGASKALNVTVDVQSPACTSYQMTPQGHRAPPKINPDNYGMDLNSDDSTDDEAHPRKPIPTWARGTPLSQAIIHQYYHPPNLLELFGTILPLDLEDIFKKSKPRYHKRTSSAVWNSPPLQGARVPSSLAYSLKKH
UniProt O15392: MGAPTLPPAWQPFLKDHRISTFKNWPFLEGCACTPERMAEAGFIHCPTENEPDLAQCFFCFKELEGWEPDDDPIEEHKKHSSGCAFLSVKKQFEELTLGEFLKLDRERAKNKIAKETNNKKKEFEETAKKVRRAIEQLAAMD

What was measured:
GST-Aurora B (human) = GST-Aurora B (human) (UniProt Q96GD4); assay: pull-down; GST-Aurora B immobilised on glutathione sepharose, incubated with mitotic HeLa cell extracts at 4 °C for 4 h; immunoblot; only the target purified
Flag-BRCC36 = Flag-BRCC36 (UniProt P46736); assay: co-IP; Flag-IP (anti-Flag-M2 agarose, 4 °C, 4-6 h) from mitotic HeLa cells transfected with FH-Abro1 or Flag-BRCC36; lysis in NETN 400, diluted to 150 mM NaCl; immunoblot of endogenous partners
[1] = molecular target: Flag-Aurora B K56R (human) (UniProt Q96GD4); assay: co-IP; Flag-IP (anti-Flag-M2 agarose, 4 °C, 4-6 h) from mitotic HEK293T cells transfected with the indicated plasmids (nocodazole 30 ng/mL, 16 h); 150 mM NaCl; immunoblot
[2] = molecular target: Flag-Aurora B K85R/K87R (human) (UniProt Q96GD4); assay: as above
Flag-HA-Aurora B (human) [3] = molecular target: Flag-HA-Aurora B (human) (UniProt Q96GD4); assay: as above
Flag-HA-Aurora B (human) [4] = molecular target: Flag-HA-Aurora B (human) (UniProt Q96GD4); assay: co-IP; Flag-Aurora B immunoprecipitates blotted for ectopic EGFP-Abro1 or EYFP-BRCC36 (Supplementary Fig. 1b, c); cell line not told in the text shown

Row | Substance | binding [1] | binding [2] | binding (Flag-HA-Aurora B (human) [3]) | further results
1 | BRCC36 (endogenous, HeLa) (from UniProt P46736 1-316) |  |  |  | binding (GST-Aurora B (human)): binds
2 | Aurora B (endogenous, HeLa) (from UniProt Q96GD4 1-344) |  |  |  | binding (Flag-BRCC36): binds
3 | INCENP (from UniProt Q9NQS7 1-918) | binds | binds | binds | 
4 | EYFP-BRCC36 (from UniProt P46736 1-316) |  |  |  | binding (Flag-HA-Aurora B (human) [4]): binds
5 | Survivin (from UniProt O15392 1-142) | binds | binds | binds | 
